The IC50 is the concentration that inhibits the measured activity by half.

This experiment deals with TYK2. Nature of the experiment: IL-12-stimulated IFN-γ production in human whole blood. Type of experiment: cell-based. The following applies: read-out: Whole blood IC50 (95% CI), TYK2 (IL-12–induced IFN-γ release).

For `CCS(=O)(=O)N1CC(CC#N)(n2cc(-c3ncnc4[nH]ccc34)cn2)C1` [Baricitinib], the half-inhibitory concentration (IC50) stood at 2350 nM.

Source of the values: publication PMC8484413 (Dermatology and Therapy, 2021).
